Results reported in patent US20120058105A1.
These are yes or no findings as the source states them, for the method shown. In cells and extracts the contact can be indirect. Some entries that bind do so weakly or less than the wild type.

Tests used:
[1] = molecular target: T1, thioredoxin (TRX1) (human) (UniProt P10599); experiment: co-immunoprecipitation from HCAEC lysates (anti-TXNIP pull-down, anti-TRX Western blot), 5 mM vs 25 mM D-glucose
T1 sequence: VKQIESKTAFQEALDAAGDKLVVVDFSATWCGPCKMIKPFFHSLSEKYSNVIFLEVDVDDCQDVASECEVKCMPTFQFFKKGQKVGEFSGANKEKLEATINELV

[2] = molecular target: T1, thioredoxin (TRX1) (human); experiment: co-immunoprecipitation from HCAEC lysates (rabbit anti-VDUP1/TXNIP on Protein G Sepharose, Western blot with rabbit anti-TRX1), 5 or 25 mM D-glucose for 24 h

B1: thioredoxin interacting protein (TXNIP) (protein)
chain: MVMFKKIKSFEVVFNDPEKVYGSGEKVAGRVIVEVCEVTRVKAVRILACGVAKVLWMQGSQQCKQTSEYLRYEDTLLLEDQPTGENEMVIMRPGNKYEYKFGFELPQGPLGTSFKGKYGCVDYWVKAFLDRPSQPTQETKKNFEVVDLVDVNTPDLMAPVSAKKEKKVSCMFIPDGRVSVSARIDRKGFCEGDEISIHADFENTCSRIVVPKAAIVARHTYLANGQTKVLTQKLSSVRGNHIISGTCASWRGKSLRVQKIRPSILGCNILRVEYSLLIYVSVPGSKKVILDLPLVIGSRSGLSSRTSSMASRTSSEMSWVDLNIPDTPEAPPCYMDVIPEDHRLESPTTPLLDDMDGSQDSPIFMYAPEFKFMPPPTYTEVDPCILNNNVQ
[1]
  binding: binds
[2]
  binding: binds
